Measured values: patent publication US20190137505A1 (THE ARIZONA BOARD OF REGENTS ON BEHALF OF THE UNIVERSITY OF …, priority 2015, published 2019)

Test system: HSA
[1] = T2D subjects taking metformin, mean (standard deviation), N 37

## CN(C)C(=N)NC(=N)N.Cl [Metformin, 1,1-dimethylbiguanide hydrochloride]
T2D subjects taking metformin compared to non-metformin T2D subjects, p=0.0042
  change in MG modifications of HSA: substantial and significant decreases
T2D subjects taking metformin compared to non-metformin T2D subjects, p=0.0062
  change in glucosone modifications of HSA: substantial and significant decreases
T2D subjects taking metformin, mean (standard deviation) are ranked HbA1c, N 35
  Log HbA1c: 78.46 (20.87)^1
[1]
  HSA Modifications Glucosone: 10.90 (2.26)
  HSA Modifications MG: 11.04 (2.42)
  HSA Modifications Oxidative: 0.22 (1.88)
